According to article doi:10.1101/2022.09.20.508642:
No constants are given. Whether binding was seen depends on the method and setting. Binding seen in cells or lysates may run through a third protein. A result given as binding can be weak or reduced; the word gives no strength. Tags and fused reporters may be left off the sequences shown.

Molecular target: T1, STRUBBELIG (SUB), C-terminal fluorescent protein fusion expressed in Arabidopsis (Arabidopsis thaliana) (UniProt Q8RWZ1)
T1 sequence: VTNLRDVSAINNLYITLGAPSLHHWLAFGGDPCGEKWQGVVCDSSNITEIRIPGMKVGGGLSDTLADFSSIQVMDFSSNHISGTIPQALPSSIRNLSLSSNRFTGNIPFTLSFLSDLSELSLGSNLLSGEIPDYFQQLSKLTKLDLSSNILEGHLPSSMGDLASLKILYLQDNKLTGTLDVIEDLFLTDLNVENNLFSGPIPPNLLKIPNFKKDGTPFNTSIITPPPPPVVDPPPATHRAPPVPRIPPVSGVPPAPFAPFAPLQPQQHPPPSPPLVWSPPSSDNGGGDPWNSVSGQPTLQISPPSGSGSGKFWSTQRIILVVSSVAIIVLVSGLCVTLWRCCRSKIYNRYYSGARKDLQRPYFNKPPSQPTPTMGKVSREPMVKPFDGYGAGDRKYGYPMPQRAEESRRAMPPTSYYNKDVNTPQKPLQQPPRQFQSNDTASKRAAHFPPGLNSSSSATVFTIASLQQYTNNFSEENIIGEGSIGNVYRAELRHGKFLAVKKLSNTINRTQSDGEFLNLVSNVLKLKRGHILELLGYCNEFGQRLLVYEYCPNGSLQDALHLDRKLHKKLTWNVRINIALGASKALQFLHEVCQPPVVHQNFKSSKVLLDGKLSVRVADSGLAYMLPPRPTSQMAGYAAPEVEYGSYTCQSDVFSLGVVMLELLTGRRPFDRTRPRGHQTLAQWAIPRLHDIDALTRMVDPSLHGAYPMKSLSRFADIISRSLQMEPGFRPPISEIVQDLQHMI
Assay: FRET or BRET

binding: binds
Substance: mCherry:QKYdelC2A (QKY with N-terminal deletion of the C2A domain) (Arabidopsis thaliana) (domain or fragment)
